The structures appear in SMILES notation. Structures can show the parent of a compound that is named as a salt. This is one part of the list. Many values rest on one well or one pass, so single values are uncertain.

The assay deals with Trypanosoma brucei brucei bloodstream form L262P (kDNA-independent). The assay can be described thus: viability Z-score (nuclei count per well, median-polish normalised, relative to plate distribution); higher = more viable parasites (negative = growth inhibition). As to conditions: 4 days; compound concentration: 10 µM (some Prestwick/PKE rows may be 1 µM / not distinguished).
Take `N#C/C1=C/C=C(C=C1)N2CCN(CC2)C(=O)C=3OC=CC=3`: the “viability Z-score” value is -1.35.

`[O-][N+](=O)C1=CC(=CC=C1)C=2OC(=CC=2)C([H])(C3=C(O)N/N=C3/C)C4=C(O)N/N=C4/C`: the “viability Z-score” value is -3.04.

Consider `COc1cc2nc(N3CCCN(C)CC3)nc(NC3CCN(Cc4ccccc4)CC3)c2cc1OC`, for which the “viability Z-score” value is -4.3.

With `O=C(C=1C(=NOC=1C)C2=C([Cl])C=C/C=C2/[Cl])N3CCN(CC3)C=4C=CC(=CC=4[N+](=O)[O-])C([F])([F])[F]`, the “viability Z-score” value was -1.61.

In the case of `CC(C)NCC(O)COc1cccc2ccccc12` [(R)-Propranolol hydrochloride], the “viability Z-score” value is -2.52.

For `Cc1nnc(NC(=O)COn2nnc3ccc([N+](=O)[O-])cc32)s1`, the “viability Z-score” value was -6.15.

As for `NC(=NCCCCCCN=C(N)N=C(N)Nc1ccc(Cl)cc1)N=C(N)Nc1ccc(Cl)cc1` [Chlorhexidine], the “viability Z-score” value is -3.42.

Consider `O[C@@]([H])(CO/C1=C/C=CC=C1)CNCCNC=2N=CC(=CN=2)CCC`, for which the “viability Z-score” value is -3.99.

As for `CCCCOc1ccc(C(=O)CCN2CCCCC2)cc1` [Dyclonine hydrochloride], the “viability Z-score” value was -2.48.

Take `O=C1N(C=C/C=C1/NC(=O)NC/C2=C/C=CC=C2)CC=3C=CC([Cl])=CC=3`: the “viability Z-score” value was -5.14.

For the molecule `N/C1=N/C(=CC([F])=N1)NCC=2C=CC=CC=2`, the “viability Z-score” value is -3.34.

Take `O=C1OCCN1N=Cc1ccc([N+](=O)[O-])o1` [Furazolidone]: the “viability Z-score” value was -3.6.

For the molecule `O=C(N/C1=C/C=CC=C1)C2=NO[C@]([H])(C2)C(=O)OC`, the “viability Z-score” value was -4.69.

`CCCN(CCC)S(=O)(=O)c1ccc(C(=O)O/N=C(\C)c2ccc(OC)c(CSc3ccccn3)c2)cc1`: the “viability Z-score” value is -1.35.

`[S]=C(NC(=O)C=1C=CC=CC=1[I])N/C2=N/C=C/C=C2/O`: the “viability Z-score” value is -4.41.

As to `CC=1C=CC=CC=1OCC[S]/C3=N/C=2C=CC=CC=2N3`, the “viability Z-score” value was -4.05.

`Cc1ccccc1Cn1cnc2ccccc21`: the “viability Z-score” value was -1.4.

On to `O=C(COC=1C=CC([Cl])=CC=1[Br])N(C)C/C2=C/C=CC=C2`, for which the “viability Z-score” value was -2.66.

With `O=Nc1ccc(O)c2ncccc12`, the “viability Z-score” value was -4.03.

For the molecule `N#CC(NC(=O)OCC)=C(NC/C1=C/C=CC=C1)NC/C2=C/C=CC=C2`, the “viability Z-score” value is -9.52.

As for `O=C(NC(=O)N/C1=C/C=C(/[Cl])C=C1)C=2C=NN3C=2N=C(/C=C3/C([F])([F])[F])C([F])([F])[F]`, the “viability Z-score” value was -2.17.

Turning to `COc1cc(/C=N/N2CCN(c3ccc(C)cc3)CC2)ccc1OCc1ccccc1`, the “viability Z-score” value is -4.79.

As to `NC(=S)NN1[C@@H]2CS[C@H]1CS2`, the “viability Z-score” value is -5.64.

Turning to `CS/C(=N/C(=O)c1c(Cl)cccc1Cl)NCCc1ccc(Cl)cc1`, the “viability Z-score” value was -1.56.

With `O=C(C=3C=C2N1C=NN=C1C(=NC2=CC=3)NC=4/C=C(/OC)C(=CC=4)OC)C5=CC=CC=C5`, the “viability Z-score” value is -7.17.

As for `O=C(N1CC[C@](C)([H])CC1)C23C[C@@]4(C)C[C@@](C)(C2)CC([H])(C3)C4`, the “viability Z-score” value was -5.2.

On to `O=C(NCC/C1=C/CCCC1)C=3[S]C=2C=CC=CC=2C=3[Cl]`, for which the “viability Z-score” value is -3.33.

Source of the values: the supplement of paper PMC8846439.
